Measured values from the supplement of paper PMC8256030.
Some of the results follow. Single values are uncertain here, since repeats match poorly.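 HEK293T cells were given each compound shortly before transfection with a reporter in which red mCherry is followed by the SARS-CoV-2 frameshift element and then GFP in the −1 frame, so GFP appears only after frameshifting.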

What follows are compounds tested on SARS-CoV-2 -1 PRF reporter mCherry-FSE-GFP(-1) (assay: mCherry (red) intensity as percent of control; higher = higher upstream reporter expression). Conditions: 10 µM; 24 h; HEK293T.

Compound | mCherry
CCOc1cc(CC(=O)N[C@@H](CC(C)C)c2ccccc2N2CCCCC2)ccc1C(=O)O [repaglinide] | 99.5%
Cc1nc2c([nH]1)-c1ccccc1N(C(=O)c1ccc(NC(=O)c3ccccc3-c3ccccc3)cc1)CC2 [conivaptan] | 121%
N/N=c1\[nH][nH]/c(=N\N)c2ccccc12 [dihydralazine] | 149%
CN(C)[C@@H]1C(=O)C(C(=O)NCN2CCCC2)=C(O)[C@@]2(O)C(=O)C3=C(O)c4c(O)cccc4[C@@](C)(O)[C@H]3C[C@@H]12 | 120%
COc1ccccc1O [Guaiacol] | 84.5%
O=C(COc1ccc(Cl)cc1)N1CCN(Cc2ccc3c(c2)OCO3)CC1 [fipexide] | 107%
Cc1ccsc1/C=C/C1=NCCCN1C [morantel] | 58.2%
CCCc1nn(C)c2c(=O)[nH]c(-c3cc(S(=O)(=O)N4CCN(C)CC4)ccc3OCC)nc12 [Sildenafil] | 72.6%
Cc1cc(N)c2cc(NC(=O)Nc3ccc4nc(C)cc(N)c4c3)ccc2n1 [aminoquinuride] | 100%
CN1CCN(C2=Nc3ccccc3Sc3ccc(Cl)cc32)CC1 [clotiapine] | 87.9%
OC[C@@H](O)[C@@H](O)[C@H](O)[C@H](O)CO [Bronchitol] | 135%
CCCCCCCCCC(=O)N[C@H]1[C@H](Oc2c3cc4cc2Oc2ccc(cc2Cl)[C@@H](O[C@@H]2O[C@H](CO)[C@@H](O)[C@H](O)[C@H]2NC(C)=O)[C@@H]2NC(=O)[C@H](NC(=O)[C@@H]4NC(=O)[C@H]4NC(=O)[C@@H](Cc5ccc(c(Cl)c5)O3)NC(=O)[C@H](N)c3ccc(O)c(c3)Oc3cc(O)cc4c3)c3ccc(O)c(c3)-c3c(OC4O[C@H](CO)[C@@H](O)[C@H](O)[C@@H]4O)cc(O)cc3[C@@H](C(=O)O)NC2=O)O[C@H](CO)[C@@H](O)[C@@H]1O (some centres undefined) [teicoplanin] | 103%
CN(C)[C@@H]1C(=O)C(C(N)=O)=C(O)[C@@]2(O)C(=O)C3=C(O)c4c(O)ccc(Cl)c4[C@@H](O)[C@H]3C[C@@H]12 [Demeclocycline] | 82.9%
C[C@H]1[C@H]2CC[C@H]3[C@@H]4CC=C5C[C@@H](N(C)C)CC[C@]5(C)[C@H]4CC[C@]23CN1C [conessine] | 68.3%
C[C@H]1[C@H](NC(=O)/C(=N\OC(C)(C)C(=O)O)c2csc(N)n2)C(=O)N1S(=O)(=O)O | 99.9%
CN(C)CC(c1ccc(O)cc1)C1(O)CCCCC1 (centres undefined) | 98%
CCCCOCCOCCOCc1cc2c(cc1CCC)OCO2 | 95.6%

Three compounds already listed, sorted by molecular weight, largest number first:
Compound | mCherry
CN(C)[C@@H]1C(=O)C(C(N)=O)=C(O)[C@@]2(O)C(=O)C3=C(O)c4c(O)ccc(Cl)c4[C@@H](O)[C@H]3C[C@@H]12 [Demeclocycline] | 82.9%
C[C@H]1[C@H]2CC[C@H]3[C@@H]4CC=C5C[C@@H](N(C)C)CC[C@]5(C)[C@H]4CC[C@]23CN1C [conessine] | 68.3%
Cc1ccsc1/C=C/C1=NCCCN1C [morantel] | 58.2%

(continued)

Compound | mCherry
CC(Cc1ccccc1)N(C)C(=O)Cn1nc(-c2ccccc2)ccc1=O (centres undefined) [isamfazone] | 83%
O=c1[nH]c2cc(C(F)(F)F)c(N3CCOCC3)cc2n(CP(=O)(O)O)c1=O [fanapanel] | 107%
CC[N+]([O-])(CC)CCOc1ccc(/C(=C(/Cl)c2ccccc2)c2ccccc2)cc1 [clomifenoxide] | 104%
CNC(=O)c1cccc(NCC(=O)NCCc2ccc(OC)c(OC)c2)c1 [ecabapide] | 92.2%
Oc1c(I)cc(Cl)c2cccnc12 [clioquinol] | 101%
CCCN(CCC)S(=O)(=O)c1ccc(C)cc1 [ditolamide] | 63.8%
OC1(c2ccc(Cl)c(C(F)(F)F)c2)CCN(CCCC(c2ccc(F)cc2)c2ccc(F)cc2)CC1 [penfluridol] | 129%
Cc1ncc(CSSCc2cnc(C)c(O)c2CO)c(CO)c1O [pyritinol] | 88.5%
CCN(CC)C(C)CN1c2ccccc2Sc2ccccc21 (centres undefined) [profenamine] | 127%
CN1C(CSCC(F)(F)F)Nc2cc(Cl)c(S(N)(=O)=O)cc2S1(=O)=O (centres undefined) [polythiazide] | 115%
Cc1ccccc1N1C(=O)c2cc(S(N)(=O)=O)c(Cl)cc2NC1C (centres undefined) [metolazone] | 101%
CCN(CCCCOC(=O)c1ccc(OC)c(OC)c1)C(C)Cc1ccc(OC)cc1 (centres undefined) [mebeverine] | 114%
O=C1CCC2CCC(=O)N12 [rolziracetam] | 93.9%
Cc1cccc(C)c1OCC(C)N (centres undefined) | 118%
CC(NN)c1ccccc1 (centres undefined) [mebanazine] | 68.7%
NC(=O)c1cc[n+](CC2=C(C(=O)[O-])N3C(=O)[C@@H](NC(=O)Cc4cccs4)[C@H]3SC2)cc1 | 88.3%
CC1/C=C/C=C/C=C/C=C/C=C/C=C/C=C/C(OC2O[C@H](C)[C@@H](O)[C@H](N)[C@@H]2O)CC(O)C(C(=O)O)C(O)CC(=O)CC(O)CC(O)CC(O)CC(=O)CCCC(=O)CC(=O)OC1C(C)CC(C)C(O)CC(=O)c1ccc(N)cc1 (some centres undefined) | 100%
